Reference: the odorant receptor screen of Mainland et al. (2015)
Where “and” joins values, the source holds several entries; their conditions need not be identical. Equal values may be shown once. Some of the results follow. Each value is one well over the wells without odorant, computed here; the data are noisy.

Chains of the proteins cited; added tags and fusions are not shown. Chains listed by the source or under a name are the forms on record and can include a tag or linker.
OR11H13, as listed by the source: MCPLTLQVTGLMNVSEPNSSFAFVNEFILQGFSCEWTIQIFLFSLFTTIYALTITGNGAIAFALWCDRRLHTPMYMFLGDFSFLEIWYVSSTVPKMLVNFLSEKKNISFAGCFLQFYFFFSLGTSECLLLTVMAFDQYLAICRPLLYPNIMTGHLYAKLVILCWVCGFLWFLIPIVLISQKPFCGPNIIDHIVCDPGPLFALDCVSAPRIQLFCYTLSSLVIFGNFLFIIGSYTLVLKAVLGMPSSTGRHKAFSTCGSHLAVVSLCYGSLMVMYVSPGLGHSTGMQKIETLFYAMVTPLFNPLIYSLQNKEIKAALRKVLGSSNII

Legend:
Assay in all cases: odorant receptor activation (CRE luciferase / Renilla) (fold of no-odor wells); higher = more activation
Conditions in all cases: 100 µM
OR10R2 clone 1400 = test system: OR10R2 clone 1400
OR10T2 clone 1032 = test system: OR10T2 clone 1032
[1] = test system: OR10V1 Q101L/V117A/Q123W clone 1520
OR10W1 R263Q clone 1176 = test system: OR10W1 R263Q clone 1176
OR10X1 clone 1368 = test system: OR10X1 clone 1368
OR10X1 clone 1516 = test system: OR10X1 clone 1516
OR10Z1 clone 1026 = test system: OR10Z1 clone 1026
OR11A1 clone 1062 = test system: OR11A1 clone 1062
OR11H1 clone 1558 = test system: OR11H1 clone 1558
OR11H12 clone 1302 = test system: OR11H12 clone 1302
OR11H13 clone 1435 = test system: OR11H13 clone 1435
OR11H4 clone 1263 = test system: OR11H4 clone 1263
OR11H4 clone 1423 = test system: OR11H4 clone 1423
[2] = test system: OR11L1 G108S/F117L/A142T/R171P clone 1031
[3] = test system: OR12D2 V47F/L56P/S104F/F113L/L120R/V159I clone 1373
OR12D2 clone 1075 = test system: OR12D2 clone 1075
OR12D3 clone 1071 = test system: OR12D3 clone 1071
OR13A1 clone 1107 = test system: OR13A1 clone 1107
OR13C2 clone 1717 = test system: OR13C2 clone 1717
OR11H6 clone 1275 = test system: OR11H6 clone 1275

SMILES	odorant receptor activation (OR10R2 clone 1400)	odorant receptor activation (OR10T2 clone 1032)	odorant receptor activation [1]	odorant receptor activation (OR10W1 R263Q clone 1176)	odorant receptor activation (OR10X1 clone 1368)	odorant receptor activation (OR10X1 clone 1516)	odorant receptor activation (OR10Z1 clone 1026)	odorant receptor activation (OR11A1 clone 1062)	odorant receptor activation (OR11H1 clone 1558)	odorant receptor activation (OR11H12 clone 1302)	odorant receptor activation (OR11H13 clone 1435)	odorant receptor activation (OR11H4 clone 1263)	odorant receptor activation (OR11H4 clone 1423)	odorant receptor activation [2]	odorant receptor activation [3]	odorant receptor activation (OR12D2 clone 1075)	odorant receptor activation (OR12D3 clone 1071)	odorant receptor activation (OR13A1 clone 1107)	odorant receptor activation (OR13C2 clone 1717)	odorant receptor activation (OR11H6 clone 1275)
CCOc1cc(C=O)ccc1O [ethyl vanillin]	0.891 and 1.23	0.779 and 1.16	1.03 and 2.08 and 1.3	1.54 and 1.2	1.2	1.24 and 2.84 and 1.62	0.816 and 1.21	1.11 and 0.961	0.736	1.61 and 1.21	1.3 and 1.19	1.5 and 1.06	0.971 and 1.31	1.11 and 1.02	0.949 and 1.34	0.755 and 0.898	1.04 and 1.05	1.11 and 1.25	0.762	–
CCC(C)=O [2-butanone]	0.613	3.27	1.22	1.02	0.83	1.21	3.9	2.54	1.15	1.13	1.38	1.08	1.09	3.57	0.283	2.04	4.63	11.6	0.618	0.93
CCCCOC(C)=O [butyl acetate]	0.132	0.944	0.703	0.927	0.206	1.18	1.25	1.02	0.768	0.711	0.174	0.796	0.138	1.07	0.203	1.3	1.11	1.19	0.611	0.791
CS [methanethiol]	1.08	0.988	0.977	0.875	0.96	0.858	0.963	0.98	0.765	1.04	1.1	0.91	1.08	1.05	1.1	1.03	1.25	1.39	0.701	0.923
